Results are given in words; binding and its absence hold for the method and conditions named. Binding seen in cells or lysates may run through a third protein. Some binding calls cover weakened binding; strength is not graded here.
What was measured:
[1] = target: Epidermal growth factor receptor (human (endogenous in CAL-27)) (UniProt P00533); assay: co-IP; anti-EGFR coprecipitates from CAL-27 lysate (RIPA buffer, Protein A/G Plus-Agarose, overnight at 4°C) blotted with an anti-SOX2 antibody
[2] = target: p62 (human (endogenous in CAL-27 and SCC-15)) (UniProt Q13501); assay: co-IP; lysates of CAL-27 and SCC-15 cells with or without 1 h of EGF (100 ng/mL) immunoprecipitated with an anti-p62 antibody and blotted with the indicated antibody
[3] = target: DDK-tagged SQSTM1 (UniProt Q13501); assay: co-IP; lysates of HEK293T cells transfected with DDK-SQSTM1 and Myc-SOX2 plasmids precipitated with an anti-DDK antibody and blotted with an anti-Myc antibody

Chains of the proteins cited; added tags and fusions are not shown.
UniProt P48431: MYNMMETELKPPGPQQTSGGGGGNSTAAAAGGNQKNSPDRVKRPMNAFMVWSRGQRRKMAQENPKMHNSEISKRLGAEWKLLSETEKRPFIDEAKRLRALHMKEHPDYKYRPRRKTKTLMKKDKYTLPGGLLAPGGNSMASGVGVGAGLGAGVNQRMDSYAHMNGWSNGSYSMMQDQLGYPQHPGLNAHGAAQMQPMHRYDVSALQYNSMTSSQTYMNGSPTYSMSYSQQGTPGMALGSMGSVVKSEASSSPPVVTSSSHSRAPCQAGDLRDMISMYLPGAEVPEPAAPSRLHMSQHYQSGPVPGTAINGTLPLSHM

Substance	binding [1]	binding [2]	binding [3]
SOX2 (from UniProt P48431 1-317)	binds	binds	
Myc-tagged wild-type SOX2 (from UniProt P48431 1-317)			binds

Reference: publication PMC6997074
